From patent US20200207989A1, “FLUORESCENT PROBE FOR ALDH3A1 DETECTION” (The University of Tokyo, priority 2016, published 2020)
At least one compound was matched to its structure with a doubt left.

Experiments:
[1] = test system: OE21 cell line; test: Cell imaging of OE21 cells against CB7 negative control; assay type: cell-based; details: probe 5: 40 μM, 90 minutes at 37° C., CB7 10 μM control
Protocol: 40 μM of probe 5 was added to culture medium (RPMI 1640, 10% FBS, 15 mM HEPES, phenol red-free). After culturing for 90 minutes at 37° C., the cells were washed using a chilled medium and examined under a confocal microscope. A sample with a specific ALDH3A1 inhibitor (1-[(4-fluorophenyl)sulfonyl]-2-methyl-1H-benzimidazole, CB7, 10 μM) added served as a negative control. Excitation was provided by a 488 nm laser, and observation was carried out at wavelengths of […] in detection.

[2] = target: T1, ALDH3A1 (Homo sapiens, UniProt P30838); test: Reactivity of probes to recombinant ALDH3A1 (UPLC/MS/MS); assay type: biochemical; details: 10-100 nM ALDH, 10-80 μM compound, Tris buffer pH 7.5, 30 minutes at 37° C., ◯/X not defined by a legend
T1 construct: purchased
T1 sequence (P30838 1-453): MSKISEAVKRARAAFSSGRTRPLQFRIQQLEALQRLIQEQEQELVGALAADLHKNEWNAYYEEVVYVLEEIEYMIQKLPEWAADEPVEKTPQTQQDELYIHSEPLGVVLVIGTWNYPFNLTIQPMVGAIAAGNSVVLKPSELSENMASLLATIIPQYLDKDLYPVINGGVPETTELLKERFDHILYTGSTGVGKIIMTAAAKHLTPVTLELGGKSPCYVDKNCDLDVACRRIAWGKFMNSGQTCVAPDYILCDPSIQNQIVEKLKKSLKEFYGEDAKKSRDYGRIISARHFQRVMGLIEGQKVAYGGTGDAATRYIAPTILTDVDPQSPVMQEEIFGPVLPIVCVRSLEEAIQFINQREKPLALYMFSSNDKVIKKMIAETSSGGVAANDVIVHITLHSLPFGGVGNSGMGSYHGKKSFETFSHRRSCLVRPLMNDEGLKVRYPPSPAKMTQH
Protocol: (§1) Human recombinant ALDH1A1/1A3/3A1 was purchased, and 100 mM of KCL, 2 mM of DTT, 1 mM of NAD(P), 10-100 nM of each ALDH, and 10-80 μM of each compound were mixed in Tris buffer (100 mM, pH 7.5), reacted for 30 minutes at 37° C., an equal amount of acetonitrile added, and the reaction stopped. The reaction solution was analyzed by UPLC/MS/MS (Waters). The UPCL chromatogram was carried out over five minutes at a flow rate of 800 μL/min by a linear gradient from 5% acetonitrile 0.01 M ammonium formate/water to 95% acetonitrile 0.01 M ammonium formate/water.

[3] = target: T1, ALDH3A1; test: Kinetic characteristics (Michaelis-Menten Km, Kcat) with ALDH3A1; assay type: biochemical; details: five minutes at 37° C., Tris buffer pH 7.5
Protocol: as §1, with “formate/water. An aldehyde-form and carboxylic acid-form probe were detected by the absorbance at a wavelength of 504 nm, and m/z of the MS spectrum at each peak was confirmed to agree with the expected m/z.” for “formate/water.”
For the reaction, 100 mM of KCL, 2 mM of DTT, 1 mM of NAD(P), and five to six concentrations within the range of 10-100 nM of each ALDH and 0.1-80 μM of each probe were selected, mixed in Tris buffer (100 mM, pH 7.5), and reacted for five minutes at 37° C.; an equal amount of acetonitrile was added, and the reaction was stopped. Detection of the aldehyde-form/carboxylic acid-form probes was carried out using the same method as described above by UPLC/MS/MS. Km and Kcat were calculated by fitting the reaction rate at each probe concentration obtained to the Michaelis-Menten equation. A Kaleida Graph ver. 4.1 (Hulinks, Inc.) was used in fitting. […]

[4] = test system: OE21 cells; test: Western blotting of ALDH3A1 expression in cells sorted out by probe brightness; assay type: cell-based

CCN(CCOCCNC(=O)c1ccc(-c2c3ccc(=O)cc-3oc3cc(O)ccc23)c(C)c1)c1ccc(C=O)cc1 [Probe 5, 2-(2-(N-ethyl-N-(4-formylphenyl)amino)ethoxy)ethyl-3-methyl-4-(6-hydroxyxanthen-3-on-9-yl)-benzamide]
Brightness of cells in imaging compared to negative control (CB7) [1]: high-brightness cells could be observed in comparison to the negative control | Reactivity to ALDH3A1 [2]: ◯ | Reactivity to ALDH3A1 ([2]; listed as probe 5): showed reactivity to ALDH1A1 and ALDH3A1 | Kcat ALDH3A1 [3]: 0.0995 ± 0.00433 s⁻¹ | ALDH3A1 expression level, top versus bottom brightness cells ([4]; OE21 cells sorted with probe 5, no MK-571, standardized by ACTB): not that much difference in the expression levels | ALDH3A1 expression in probe positive (top 25%) versus negative (bottom 25%) group ([4]; ctrl/KD=1:1 mixed OE21 sample, probe 5 with MK-571): pronounced expression of ALDH3A1 was found in the probe 5 positive group and virtually no ALDH3A1 could be found in the negative group
